{"source": "paper PMC10334838", "target": "T1, endogenous TRAF6 (mouse peritoneal exudate macrophages) (mouse (endogenous in peritoneal exudate macrophages)) (UniProt P70196)", "T1 sequence": "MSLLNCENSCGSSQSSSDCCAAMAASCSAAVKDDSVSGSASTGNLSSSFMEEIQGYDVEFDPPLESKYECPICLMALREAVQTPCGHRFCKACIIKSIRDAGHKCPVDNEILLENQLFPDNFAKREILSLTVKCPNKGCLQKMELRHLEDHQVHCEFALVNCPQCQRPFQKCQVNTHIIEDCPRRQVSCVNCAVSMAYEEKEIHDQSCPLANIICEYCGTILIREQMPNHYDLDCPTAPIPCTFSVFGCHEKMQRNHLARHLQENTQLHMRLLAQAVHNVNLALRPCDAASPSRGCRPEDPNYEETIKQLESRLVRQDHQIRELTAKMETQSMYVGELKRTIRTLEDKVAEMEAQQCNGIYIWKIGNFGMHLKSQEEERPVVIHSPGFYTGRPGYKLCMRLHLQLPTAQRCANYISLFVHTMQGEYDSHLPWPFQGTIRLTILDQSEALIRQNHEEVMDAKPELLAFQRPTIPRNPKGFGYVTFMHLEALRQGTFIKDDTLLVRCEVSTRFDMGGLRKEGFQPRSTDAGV", "experiment": "co-IP; endogenous proteins in mouse PEMs, untreated and challenged with LPS (100 ng/mL) for the indicated times", "note": "Results are given in words; binding and its absence hold for the method and conditions named. In cells and extracts the contact can be indirect. Some results given as binding are weak or reduced against the parent protein; the word gives no strength.", "data": [{"binder": "endogenous Sufu (mouse peritoneal exudate macrophages) (protein, UniProt Q9Z0P7 1-484) MAELRPSVAPGPAAPPASGPSAPPAFASLFPPGLHAIYGECRRLYPDQPNPLQVTAIVKYWLGGPDPLDYVSMYRNMGSPSANIPEHWHYISFGLSDLYGDNRVHEFTGTDGPSGFGFELTFRLKRETGESAPPTWPAELMQGLARYVFQSENTFCSGDHVSWHSPLDNSESRIQHMLLTEDPQMQPVRTPFGVVTFLQIVGVCTEELHSAQQWNGQGILELLRTVPIAGGPWLITDMRRGETIFEIDPHLQERVDKGIETDGSNLSGVSAKCAWDDLSRPPEDEEDSRSICLGTQPRRLSGKDTEQIRETLRRGLEINSKPVLPPINSQRQNGLTHDRAPSRKDSLGSDSSTAIIPHELIRTRQLESVHLKFNQESGALIPLCLRGRLLHGRHFTYKSITGDMAITFVSTGVEGAFATEEHPYAAHGPWLQILLTEEFVEKMLEDLEDLTSPEEFKLPKEYSWPEKKLKVSILPDVVFDSPLH", "values": [{"measurement": "binding", "result": "binds"}]}]}
